Here are results for two molecules from doi:10.1101/2020.09.23.309245.

Sequences of proteins named here, by UniProt entry; tags and fusion partners are left off. Residues count along the entry.
UniProt Q9NRD9, 20-1551: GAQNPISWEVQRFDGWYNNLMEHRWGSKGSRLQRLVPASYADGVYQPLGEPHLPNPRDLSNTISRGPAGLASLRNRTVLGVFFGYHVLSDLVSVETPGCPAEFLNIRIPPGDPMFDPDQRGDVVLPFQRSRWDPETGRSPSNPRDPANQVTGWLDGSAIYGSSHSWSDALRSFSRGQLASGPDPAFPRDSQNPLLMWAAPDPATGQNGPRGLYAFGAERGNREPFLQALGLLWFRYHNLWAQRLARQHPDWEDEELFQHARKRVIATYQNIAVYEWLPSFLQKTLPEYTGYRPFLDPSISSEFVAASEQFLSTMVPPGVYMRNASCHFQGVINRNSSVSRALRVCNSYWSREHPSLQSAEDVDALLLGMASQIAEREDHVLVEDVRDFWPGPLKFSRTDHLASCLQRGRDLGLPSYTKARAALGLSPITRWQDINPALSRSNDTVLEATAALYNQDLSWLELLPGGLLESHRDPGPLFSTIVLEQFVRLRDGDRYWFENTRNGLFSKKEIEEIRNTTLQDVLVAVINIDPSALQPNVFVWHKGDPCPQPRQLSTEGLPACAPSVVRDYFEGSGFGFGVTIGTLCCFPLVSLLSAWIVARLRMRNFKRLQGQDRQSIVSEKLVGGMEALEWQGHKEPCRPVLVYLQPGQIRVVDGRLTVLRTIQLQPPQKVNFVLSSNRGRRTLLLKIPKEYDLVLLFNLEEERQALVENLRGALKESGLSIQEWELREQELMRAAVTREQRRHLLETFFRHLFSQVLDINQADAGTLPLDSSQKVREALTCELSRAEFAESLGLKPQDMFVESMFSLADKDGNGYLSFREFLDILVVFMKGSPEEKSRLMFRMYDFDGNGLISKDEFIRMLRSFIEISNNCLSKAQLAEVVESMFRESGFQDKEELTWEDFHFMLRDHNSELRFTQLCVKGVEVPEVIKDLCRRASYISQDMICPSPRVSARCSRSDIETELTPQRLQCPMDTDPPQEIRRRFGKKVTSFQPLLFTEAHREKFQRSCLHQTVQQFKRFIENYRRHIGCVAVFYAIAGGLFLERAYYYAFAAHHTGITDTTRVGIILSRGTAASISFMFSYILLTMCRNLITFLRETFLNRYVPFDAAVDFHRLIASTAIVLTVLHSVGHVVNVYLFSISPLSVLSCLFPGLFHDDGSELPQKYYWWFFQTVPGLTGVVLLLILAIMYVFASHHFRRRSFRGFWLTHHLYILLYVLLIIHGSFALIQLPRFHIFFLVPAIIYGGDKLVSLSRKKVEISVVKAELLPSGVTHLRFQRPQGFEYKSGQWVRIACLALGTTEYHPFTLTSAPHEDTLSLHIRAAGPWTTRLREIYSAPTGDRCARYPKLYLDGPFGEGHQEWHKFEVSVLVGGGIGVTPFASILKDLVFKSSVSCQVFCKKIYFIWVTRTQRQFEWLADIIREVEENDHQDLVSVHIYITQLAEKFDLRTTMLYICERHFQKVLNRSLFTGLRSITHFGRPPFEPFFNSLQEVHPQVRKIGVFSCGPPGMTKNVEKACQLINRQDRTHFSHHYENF

Test [1] addresses human DUOX1 (hDUOX1), matured protein (20-1551) with N-terminal GFP tag (human) (UniProt Q9NRD9). The test is described as follows: SEC. (Size exclusion chromatography separates by hydrodynamic size, large species first.)
Test [2] shares this target. The test is described as follows: cryo-EM structure.
Test [3] shares this target. The test is described as follows: cryo-EM structure. This is another data set of the same source.

No constants are given. Whether binding was seen depends on the method and setting. Some entries that bind do so weakly or less than the wild type. Tags and fused reporters may be left off the sequences shown.

B1: human DUOXA1 (hDUOXA1) with a C-terminal MBP-mScarlet tag (protein, UniProt Q1HG43 1-330)
chain: MATLGHTFPFYAGPKPTFPMDTTLASIIMIFLTALATFIVILPGIRGKTRLFWLLRVVTSLFIGAAILAVNFSSEWSVGQVSTNTSYKAFSSEWISADIGLQVGLGGVNITLTGTPVQQLNETINYNEEFTWRLGENYAEEYAKALEKGLPDPVLYLAEKFTPRSPCGLYRQYRLAGHYTSAMLWVAFLCWLLANVMLSMPVLVYGGYMLLATGIFQLLALLFFSMATSLTSPCPLHLGASVLHTHHGPAFWITLTTGLLCVLLGLAMAVAHRMQPHRLKAFFNQSVDEDPMLEWSPEEGGLLSPRYRSMADSPKSQDIPLSEASSTKAY
As for B1, in test [1], the binding entry is on record as “binds”.

B2: human DUOXA1 (hDUOXA1), non-tagged (protein, UniProt Q1HG43 1-330)
chain: B1 chain
modifications: N-linked glycosylation on N109
As for B2, the binding result in test [2], in test [3] and in test [1] was “binds” each time.
